The target in experiment [1] is HA-FAT10 (UniProt O15205). Briefly: co-IP; SK-N-SH cells co-transfected; lysed in DM buffer (1% n-dodecyl-β-D-maltoside, 10 mM EDTA, protease inhibitors in PBS); 2 µl antibody 2 h at 4°C, Protein G Sepharose overnight at 4°C, 5 washes; western blot; with or without 50 µM MG132 for 4 h. On the technique in general: In western blotting, separated proteins are transferred to a membrane and probed.

Protein sequences, listed by entry. Tags and fused reporters are not part of them. Lines headed by an entry give the natural chain unless they say otherwise; changes in a name come on top. Chains listed by the source or under a name are the forms on record and can include a tag or linker.
UniProt O15205: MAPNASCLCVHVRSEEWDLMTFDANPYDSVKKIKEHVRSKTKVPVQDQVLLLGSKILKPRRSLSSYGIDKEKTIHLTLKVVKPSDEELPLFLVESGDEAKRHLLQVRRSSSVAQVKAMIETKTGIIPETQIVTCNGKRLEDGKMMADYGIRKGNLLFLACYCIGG
NUB1-FLAG (NEDD8 ultimate buster-1) (Q9Y5A7, form named): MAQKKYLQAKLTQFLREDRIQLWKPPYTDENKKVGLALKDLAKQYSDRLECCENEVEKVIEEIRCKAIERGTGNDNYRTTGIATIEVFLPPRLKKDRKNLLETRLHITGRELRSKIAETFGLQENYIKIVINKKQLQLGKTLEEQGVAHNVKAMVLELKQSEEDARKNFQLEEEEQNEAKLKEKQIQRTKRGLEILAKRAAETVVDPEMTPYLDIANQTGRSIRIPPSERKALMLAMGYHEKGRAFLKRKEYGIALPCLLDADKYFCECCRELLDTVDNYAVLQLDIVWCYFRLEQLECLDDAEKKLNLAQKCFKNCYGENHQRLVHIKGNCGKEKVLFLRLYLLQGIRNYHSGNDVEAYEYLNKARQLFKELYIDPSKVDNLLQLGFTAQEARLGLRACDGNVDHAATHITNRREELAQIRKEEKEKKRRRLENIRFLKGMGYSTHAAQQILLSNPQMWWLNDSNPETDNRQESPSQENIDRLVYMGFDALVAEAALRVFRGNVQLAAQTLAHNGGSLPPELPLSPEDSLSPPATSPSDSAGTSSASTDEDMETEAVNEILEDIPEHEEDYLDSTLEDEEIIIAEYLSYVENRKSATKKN

Experiment [2] concerns the target NUB1-FLAG (NEDD8 ultimate buster-1) (UniProt Q9Y5A7). The experiment is described as above.
In experiment [3] the target is T1, Myc-AIPL1 (aryl hydrocarbon receptor interacting protein-like 1), wild type (UniProt Q9NZN9).
T1 sequence: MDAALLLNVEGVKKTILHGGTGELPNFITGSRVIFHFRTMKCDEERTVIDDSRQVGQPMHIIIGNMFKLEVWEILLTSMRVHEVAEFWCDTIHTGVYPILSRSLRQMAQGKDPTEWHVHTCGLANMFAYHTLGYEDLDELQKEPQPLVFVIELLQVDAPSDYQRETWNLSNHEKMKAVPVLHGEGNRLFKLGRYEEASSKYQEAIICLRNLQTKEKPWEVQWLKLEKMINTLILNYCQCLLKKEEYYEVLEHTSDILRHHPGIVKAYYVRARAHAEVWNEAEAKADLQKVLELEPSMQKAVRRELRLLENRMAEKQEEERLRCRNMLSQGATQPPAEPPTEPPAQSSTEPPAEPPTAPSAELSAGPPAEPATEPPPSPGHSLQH
Briefly: co-IP; as the other co-IPs, but SK-N-SH cells also co-transfected with HA-FAT10 as a third protein; Myc-AIPL1 (wild type or C239R) precipitated.

Experiment [4] concerns the target T1, Myc-AIPL1 (aryl hydrocarbon receptor interacting protein-like 1), wild type. Briefly: co-IP; SK-N-SH cells co-transfected; lysed in DM buffer (1% n-dodecyl-β-D-maltoside, 10 mM EDTA, protease inhibitors in PBS); 2 µl antibody 2 h at 4°C, Protein G Sepharose overnight at 4°C, 5 washes; western blot; with or without 50 µM MG132 for 4 h.

Positions count from the first letter of the chain named. Names and notes keep the numbering of the source. Results are given in words; binding and its absence hold for the method and conditions named. In cells and extracts the contact can be indirect. Some binding calls cover weakened binding; strength is not graded here. Where a sequence is shown, tags or fusion partners need not be part of it.

B1: Myc-AIPL1 (aryl hydrocarbon receptor interacting protein-like 1), wild type (protein, UniProt Q9NZN9 1-384)
chain: T1 sequence
Turning to B1, the binding entry in experiment [1] and in experiment [2] was “binds” each time.

B2: Myc-AIPL1 C239R (protein, UniProt Q9NZN9 1-384)
chain: T1 sequence with C239R
With B2, the binding result in experiment [1] was “binds”.

B3: His6-UBA6 (enzyme, UniProt A0AVT1 1-1052)
chain: MEGSEPVAAHQGEEASCSSWGTGSTNKNLPIMSTASVEIDDALYSRQRYVLGDTAMQKMAKSHVFLSGMGGLGLEIAKNLVLAGIKAVTIHDTEKCQAWDLGTNFFLSEDDVVNKRNRAEAVLKHIAELNPYVHVTSSSVPFNETTDLSFLDKYQCVVLTEMKLPLQKKINDFCRSQCPPIKFISADVHGIWSRLFCDFGDEFEVLDTTGEEPKEIFISNITQANPGIVTCLENHPHKLETGQFLTFREINGMTGLNGSIQQITVISPFSFSIGDTTELEPYLHGGIAVQVKTPKTVFFESLERQLKHPKCLIVDFSNPEAPLEIHTAMLALDQFQEKYSRKPNVGCQQDSEELLKLATSISETLEEKPDVNADIVHWLSWTAQGFLSPLAAAVGGVASQEVLKAVTGKFSPLCQWLYLEAADIVESLGKPECEEFLPRGDRYDALRACIGDTLCQKLQNLNIFLVGCGAIGCEMLKNFALLGVGTSKEKGMITVTDPDLIEKSNLNRQFLFRPHHIQKPKSYTAADATLKINSQIKIDAHLNKVCPTTETIYNDEFYTKQDVIITALDNVEARRYVDSRCLANLRPLLDSGTMGTKGHTEVIVPHLTESYNSHRDPPEEEIPFCTLKSFPAAIEHTIQWARDKFESSFSHKPSLFNKFWQTYSSAEEVLQKIQSGHSLEGCFQVIKLLSRRPRNWSQCVELARLKFEKYFNHKALQLLHCFPLDIRLKDGSLFWQSPKRPPSPIKFDLNEPLHLSFLQNAAKLYATVYCIPFAEEDLSADALLNILSEVKIQEFKPSNKVVQTDETARKPDHVPISSEDERNAIFQLEKAILSNEATKSDLQMAVLSFEKDDDHNGHIDFITAASNLRAKMYSIEPADRFKTKRIAGKIIPAIATTTATVSGLVALEMIKVTGGYPFEAYKNCFLNLAIPIVVFTETTEVRKTKIRNGISFTIWDRWTVHGKEDFTLLDFINAVKEKYGIEPTMVVQGVKMLYVPVMPGHAKRLKLTMHKLVKPTTEKKYVDLTVSFAPDIDGDEDLPGPPVRYYFSHDTD
Take B3: the binding result in experiment [3] is “no binding (condition: with FAT10 co-expressed)”; in experiment [4], “binds”.

Values taken from publication PMC3274541.
